In patent US7101988B2, “Polyvalent cation-sensing receptor in Atlantic salmon” (MariCal, Inc., priority 2000, dated 2006):
These are yes or no findings as the source states them, for the method shown. Some entries that bind do so weakly or less than the wild type.

Protein sequences, listed by entry. Tags and fused reporters are not part of them. Lines headed by an entry give the natural chain unless they say otherwise; changes in a name come on top.
UniProt P41180: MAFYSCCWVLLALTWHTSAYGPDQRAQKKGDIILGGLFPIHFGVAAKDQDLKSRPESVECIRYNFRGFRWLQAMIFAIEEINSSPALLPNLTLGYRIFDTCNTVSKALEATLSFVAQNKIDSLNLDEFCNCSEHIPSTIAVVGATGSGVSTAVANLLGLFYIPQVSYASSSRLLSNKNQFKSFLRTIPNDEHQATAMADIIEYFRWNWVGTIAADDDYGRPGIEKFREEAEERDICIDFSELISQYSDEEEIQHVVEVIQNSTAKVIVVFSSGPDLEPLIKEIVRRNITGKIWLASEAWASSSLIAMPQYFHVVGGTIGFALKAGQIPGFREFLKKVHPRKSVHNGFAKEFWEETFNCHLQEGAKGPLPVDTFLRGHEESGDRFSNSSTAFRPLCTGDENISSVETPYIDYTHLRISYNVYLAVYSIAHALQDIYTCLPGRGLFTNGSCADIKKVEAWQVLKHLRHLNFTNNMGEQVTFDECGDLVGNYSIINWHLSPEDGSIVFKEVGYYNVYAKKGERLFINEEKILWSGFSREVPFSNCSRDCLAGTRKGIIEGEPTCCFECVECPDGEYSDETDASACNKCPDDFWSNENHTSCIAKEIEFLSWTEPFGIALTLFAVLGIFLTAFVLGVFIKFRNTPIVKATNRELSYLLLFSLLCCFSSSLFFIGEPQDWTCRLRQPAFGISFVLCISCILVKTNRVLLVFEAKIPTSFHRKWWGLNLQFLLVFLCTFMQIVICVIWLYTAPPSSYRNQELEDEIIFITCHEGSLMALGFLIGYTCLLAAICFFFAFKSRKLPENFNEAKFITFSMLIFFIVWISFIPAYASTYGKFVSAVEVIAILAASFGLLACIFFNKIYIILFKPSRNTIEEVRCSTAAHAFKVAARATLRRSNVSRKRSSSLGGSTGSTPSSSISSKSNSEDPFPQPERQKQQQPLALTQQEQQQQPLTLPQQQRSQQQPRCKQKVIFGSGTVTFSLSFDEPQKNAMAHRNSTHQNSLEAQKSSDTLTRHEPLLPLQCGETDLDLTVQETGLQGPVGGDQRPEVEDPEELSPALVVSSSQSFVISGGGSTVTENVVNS

Molecular target: Human Parathyroid Calcium Receptor (HuPCaR) (human) (UniProt P41180)
Test: immunoblot with SDD antiserum; self-association

binding: binds
B1: Human Parathyroid Calcium Receptor (HuPCaR) (receptor)
chain: YSPSQPAQKKGDIILGGLFPIHFGVAAKDQDLKSRPESVECIRYNFRGFRWLQAMIFAIEEINSSPALLPNLTLGYRIFDTCNTVSKALEATLSFVAQNKIDSLNLDEFCNCSEHIPSTIAVVGATGSGVSTAVANLLGLFYIPQVSYASSSRLLSNKNQFKSFLRTIPNDEHCATAMADIIEYFRWNWVGTIAADDDYGRPGIEKFREEAEERDICIDFSELISQYSDEEEIQMVVEVIQNSTAKVIVVFSSGPDLEPLIKEIVPRNITGKIWLASEAWASSSLIAMPQYFHVVGGTIGFALKAGQIPGFREFLKKVHPPKSVNNGFAKEFWEETFMCHLQEGAKGPLPVDTFLAGHEESGDRFSNSSTAFPPLCTGDENISSVETPYIDYTNLRISYNVYLAVYSIANALQDIYTCLPGRGLFTNGSCADIKKVEAWQVLKHLRNLNFTNNMGEQVTFDECGDLVGNYSIINWHLSPEDGSIVFKEVGYYNVYAKKGERLFINEEKILWSGFSREVPFSNCSRDCLAGTRKGIIEGEPTCCFECVECPDGEYSDETDASACNKCPDDFWSNENHTSCIAKEIEFLSWTEPFGIALTLFAVLGISLTAFVLGVFIKFRNTPIVKATNRELSYLLLFSLLCCFSSSLFFIGEPQDWTCRLRQPAFGISFVLCISCILVKTNRVLLVFEAKIPTSFMFKWWGLNLQFLLVFLCTFNQIVICVIWLYTAPPSSYRNQELEDEIIFITCNEGSLMALGFLIGYTCLLAAICFFFAFKSRKLPENFNEAKFITFSMLIFFIVWISFIPAYASTYGKFVSAVEVIAILAASFGLLACIFFNKIYIILFKPSRNTIEEVRCSTAANAFKVAARATLRRSNVSRKRSSSLGGSTGSTPSSSISSKSNSEDPFPRPERQKQQQPLALTQQEQQQQPLTLPQQQRSQQQPRCKQKVIFGSGTVTFSLSFDEPQKNAMANRNSTNQNSLEAQKSSDTLTANQPLLPLQCGETDLDLTVQETGLQGPVGGDQRPEVEDPEELSPALVVSSSQSFVISGGGSTVTENVVNS
